No constants are given. Whether binding was seen depends on the method and setting. Binding seen in cells or lysates may run through a third protein. Some results given as binding are weak or reduced against the parent protein; the word gives no strength.
Experiments:
[1] = target: Gαo, alpha subunit of the heterotrimeric G protein Go (native, mouse brain) (mouse (endogenous in BALB/c mouse brain)) (UniProt P18872); assay: co-IP; as a1 but lysate with 100 µM GTPγS (Gαo activated), 4 °C, 2 h; Gαo precipitated with anti-Gαo sc-13532 cross-linked to protein A/G agarose; read by protein stain and western blot
[2] = target: Gαo, alpha subunit of the heterotrimeric G protein Go (native, mouse brain) (mouse (endogenous in BALB/c mouse brain)) (UniProt P18872); assay: co-IP; mouse brain lysate (2 mg/ml in IP buffer: 50 mM HEPES pH 7.4, 100 mM NaCl, 1 mM EDTA, 3 mM EGTA, 10 mM MgCl2, 1% Triton X-100) with 100 µM GDP, 4 °C, 2 h; Gαo precipitated with anti-Gαo sc-13532 cross-linked to protein A/G agarose; read by protein stain and western blot

Sequences of proteins named here, by UniProt entry; tags and fusion partners are left off.
UniProt P18872: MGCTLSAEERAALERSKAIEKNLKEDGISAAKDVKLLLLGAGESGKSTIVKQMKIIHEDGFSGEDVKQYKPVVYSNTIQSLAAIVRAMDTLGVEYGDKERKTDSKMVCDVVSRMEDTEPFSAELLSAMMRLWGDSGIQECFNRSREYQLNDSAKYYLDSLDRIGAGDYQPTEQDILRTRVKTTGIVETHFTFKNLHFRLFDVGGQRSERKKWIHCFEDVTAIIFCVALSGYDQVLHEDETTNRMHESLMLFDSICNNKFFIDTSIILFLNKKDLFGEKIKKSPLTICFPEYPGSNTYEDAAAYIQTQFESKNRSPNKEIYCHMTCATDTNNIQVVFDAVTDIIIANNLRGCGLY

binding [1]: binds
B1: GPRIN-1 (G protein-regulated inducer of neurite outgrowth 1) (protein, UniProt Q3UNH4 1-932)
chain: MRDCCSSPKAIPAPPRHALDQSLGMDPRHTSSSGAAEGASCSERPAGSLACPSPNCSPLPETPRAHGALTSDNSGTTLFGKPEPMSSAEATPTASEIRNPVFSGKMDGNSLKQADSTSTRKEEAGSLRNEESMLKGKAEPMIYGKGEPGTVGRVDCTASGAENSGSLGKVDMPCSSKVDIVSPGGDNAGSLRKVETISSGKMDPKTENVMHSRRERPGSTGEGDLVSLRENDMKPPDNTDSASTKKTDPEFSGKLTPGSSGKTELVSSVTVAPVTSENVNPVCSGGAGPAAVGNSETLSSVKKDPQLLGKKEAVSSGEGGSVSVRMAETVSARQPEGMFPAKTDSTSSNSTGPSGRADPVSLRNSELVSPVKPERLSSGQAERVSLVKTETLSSGKEDPRSSRRVDHTTVTGNMQTSQKGNPESSGKTDLGSSSSGDTRSLGTWGSLSAAKAEVTEGKGDPQPWKKASLPASEKTDPLASSKAGSASQGKAETVSPGEVDAMTLGKTVPTSSGKTALVSPGKVDLMTSERAEGIPELQASEKGNPVNSTRVDTGATGSTEPKSGVKVITQIPGATSPGKVETPSLQKEQPQLSEKTDPSRKVDPPTTVEPVSLGKADSASPSPRKAESQTSAKTVPQAPDKATSSLRQSDGTPYSSAQPQRDTRSIGSLPEREPSASTSQKDLAAAAAQKSPSAEAAAPPPGPRTRDNFTKAPSWDAGAPPPREDAGTQAGAQACVSVAVSPMSPQDGAGGPAFSFQAAPRAPSPAPRPPSRRDAGLQVSLGAAETRSVATGPMTPQAAAPPAVPPVFPEVRVRPGSVLAAALAPQEATEPVRDVSWDEKGMTWEVYGASMEVEVLGMAIQKHLERQIEEHGRQGAPAPAPPPAVRAGPGRAGSVRTAPAEGAAKRPPGLFRALLQSVRRPRCCSRAGPTAE
binding [2]: no binding (condition: lysate with 100 µM GDP)

— article PMC12677461
